Counter-ions that a name gives are not always drawn. The list shows a part of the results. The numbers are fractions of the control, whatever unit the source prints. Most values lie at the level of the controls, where differences are scatter.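 MIN6 is a mouse insulinoma beta-cell line that stably carries a lentiviral reporter in which the Pdx1 and Ins1 promoters each drive a nucleus-targeted fluorescent protein; cells were counted by automated imaging with a Hoechst nuclear stain. In the screen, a drug was a possible hit when its Ins1 promoter readout lay beyond two median absolute deviations from the DMSO controls while Pdx1 activity stayed near normal.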
What follows are compounds tested on MIN6 (assay: % Pdx1+ Ins1+ (double-positive, mature) cells relative to DMSO control (fold of DMSO control); higher = more mature Ins1 promoter-active cells). Conditions: 8.5 µM; 48 h; glucose 5 mM.

Row | SMILES | % Pdx1+ Ins1+
1 | O=c1oc2ccccc2c(O)c1Cc1c(O)c2ccccc2oc1=O [Dicumarol] | 1.08
2 | NC(=O)N/N=C/c1ccc([N+](=O)[O-])o1 [Nitrofural] | 0.867
3 | CN1CCCCC1CCN1c2ccccc2Sc2ccc([S+](C)[O-])cc21 (centres undefined) [Mesoridazine besylate] | 1.04
4 | CCCC(=O)Nc1ncnc2c1ncn2[C@@H]1O[C@@H]2COP(=O)(O)O[C@H]2[C@H]1OC(=O)CCC [Bucladesine sodium salt] | 1.15
5 | CCN1CCN(C(=O)N[C@@H](C(=O)N[C@@H]2C(=O)N3[C@@H]2SC(C)(C)[C@@H]3C(=O)O)c2ccccc2)C(=O)C1=O [Piperacillin sodium salt] | 0.895
6 | CO[C@@H]1[C@@H](OC(N)=O)[C@@H](O)[C@H](Oc2ccc3c(O)c(NC(=O)c4ccc(O)c(CC=C(C)C)c4)c(=O)oc3c2C)OC1(C)C [Novobiocin sodium salt] | 0.887
7 | Cn1nnnc1SCC1=C(C(=O)O)N2C(=O)[C@@H](NC(=O)[C@H](O)c3ccccc3)[C@H]2SC1 [Cefamandole sodium salt] | 0.771
8 | COc1ccc(NS(=O)(=O)c2ccc(N)cc2)nn1 [Sulfamethoxypyridazine] | 0.867
9 | Nc1ccc(C(=O)NCC(=O)O)cc1 [Aminohippuric acid] | 0.936
10 | CC1(C)OC(=O)NC1=O [Dimethadione] | 0.928
11 | N=C(N)NCC1COC2(CCCCC2)O1 (centres undefined) [Guanadrel sulfate] | 0.856
12 | Nc1ccc(S(=O)(=O)c2ccc(N)cc2)cc1 [Dapsone] | 1.28
13 | OC[C@H]1O[C@@H](Oc2ccc(O)cc2)[C@H](O)[C@@H](O)[C@@H]1O [Arbutin] | 0.919
14 | OCCN1CCN(CCCN2c3ccccc3Sc3ccc(Cl)cc32)CC1 [Perphenazine] | 1.14
15 | COc1nc(C)nc(Cl)c1NC1=NCCN1 [Moxonidine] | 0.716
16 | COc1cc2nc(N3CCN(C(=O)c4ccco4)CC3)nc(N)c2cc1OC [Prazosin hydrochloride] | 0.97
17 | CCn1cc(C(=O)O)c(=O)c2cnc(N3CCNCC3)nc21 [Pipemidic acid] | 1.01
18 | O=c1c(O)c(-c2cc(O)c(O)c(O)c2)oc2cc(O)cc(O)c12 [Myricetin] | 0.858
19 | Cc1ccc(S(=O)(=O)NC(=O)NN2CC3CCCC3C2)cc1 (centres undefined) [Gliclazide] | 0.97
20 | COc1ccc(-c2cc(=O)c3c(O)cc(O)cc3o2)cc1 [Acacetin] | 0.825
21 | CC(=O)N[C@@H](CC(=O)N[C@@H](CCC(=O)O)C(=O)O)C(=O)O [Spaglumic acid] | 0.979
22 | Nc1c(O)cccc1C(=O)CC(N)C(=O)O (racemic) [Kynurenine, 3-hydroxy (R,S)] | 0.965

Row | SMILES | % Pdx1+ Ins1+
23 | COc1ccc2cc(CCC(C)=O)ccc2c1 [Nabumetone] | 0.98
24 | CCn1cc(C(=O)O)c(=O)c2ccc(C)nc21 [Nalidixic acid sodium salt hydrate] | 1.02
25 | C#CCN(C)Cc1ccccc1 [Pargyline hydrochloride] | 1.17
26 | CCN(CC)CCNC(=O)c1cc(S(C)(=O)=O)ccc1OC [Tiapride hydrochloride] | 1.14
27 | O=C(CCCN1CC=C(n2c(=O)[nH]c3ccccc32)CC1)c1ccc(F)cc1 [Droperidol] | 0.98
28 | CC(C)N1CCN(c2ccc(OCC3COC(Cn4cncn4)(c4ccc(Cl)cc4Cl)O3)cc2)CC1 (centres undefined) [Terconazole] | 0.955
29 | Cc1ncc([N+](=O)[O-])n1CCO [Metronidazole] | 1.12
30 | CCN(CC)CC#CCOC(=O)C(O)(c1ccccc1)C1CCCCC1 (centres undefined) [Oxybutynin chloride] | 1.12
31 | OC(CCN1CCCCC1)(c1ccccc1)C1CC2C=CC1C2 (centres undefined) [Biperiden hydrochloride] | 0.91
32 | O=C(NCCNCC(O)COc1ccc(O)cc1)N1CCOCC1 (centres undefined) [Xamoterol hemifumarate] | 0.956
33 | CCN(Cc1ccncc1)C(=O)C(CO)c1ccccc1 (centres undefined) [Tropicamide] | 1.09
34 | COc1ccc(C(=O)NCc2cccnc2)cc1C(=O)NCc1cccnc1 [Picotamide monohydrate] | 1.01
35 | NC[C@H]1O[C@H](O[C@H]2[C@H](O[C@@H]3O[C@H](CO)[C@@H](O)[C@H]3O)[C@@H](O)[C@H](N)C[C@@H]2N)[C@H](N)[C@@H](O)[C@@H]1O [Ribostamycin sulfate salt] | 1.02
36 | COc1ccc2[nH]cc(CCNC(C)=O)c2c1 [Melatonin] | 0.885
37 | CC[C@H]1OC(=O)[C@H](C)[C@@H](O[C@H]2C[C@@](C)(OC)[C@@H](O)[C@H](C)O2)[C@H](C)[C@@H](O[C@@H]2O[C@H](C)C[C@H](N(C)C)[C@H]2O)[C@](C)(O)C[C@@H](C)/C(=N\OCOCCOC)[C@H](C)[C@@H](O)[C@]1(C)O [Roxithromycin] | 0.923
38 | COc1c2ccoc2nc2c(OC)c(OCC(O)C(C)(C)O)ccc12 (centres undefined) [Evoxine] | 0.921
39 | Nc1nc(=O)c2nc(CNc3ccc(C(=O)N[C@@H](CCC(=O)O)C(=O)O)cc3)cnc2[nH]1 [Folic acid] | 0.852
40 | CC(=O)N[C@@H](CC(C)C)C(=O)O [N-Acetyl-L-leucine] | 0.972
41 | CC(C)NCC(O)COc1ccc(COCCOC(C)C)cc1 (centres undefined) [Bisoprolol fumarate] | 1.06
42 | Nc1nc(=S)c2ncn([C@@H]3O[C@H](CO)[C@@H](O)[C@H]3O)c2[nH]1 [Thioguanosine] | 0.512
43 | O=c1cc(-c2ccc(O)cc2)oc2cc(O)cc(O)c12 [Apigenin] | 0.877
44 | CO[C@H]1/C=C/O[C@@]2(C)Oc3c(C)c(O)c4c(c3C2=O)C2=NC3(CCN(CC(C)C)CC3)NC2=C(NC(=O)/C(C)=C\C=C\[C@H](C)[C@H](O)[C@@H](C)[C@@H](O)[C@@H](C)[C@H](OC(C)=O)[C@@H]1C)C4=O [Rifabutin] | 0.926

Row | SMILES | % Pdx1+ Ins1+
45 | O=C(Cn1ccnc1[N+](=O)[O-])NCCO [Etanidazole] | 0.833
46 | COc1c(O[C@@H]2O[C@H](CO)[C@@H](O)[C@H](O)[C@H]2O)cc2c(c1OC)-c1ccc(SC)c(=O)cc1[C@@H](NC(C)=O)CC2 [Thiocolchicoside] | 0.937
47 | CN(C)CCN(Cc1cccs1)c1ccccn1 [Methapyrilene hydrochloride] | 0.9
48 | NC(=O)N1c2ccccc2C=Cc2ccccc21 [Carbamazepine] | 1.22
49 | Clc1ccc(C(Cn2ccnc2)OCc2c(Cl)cccc2Cl)c(Cl)c1 (centres undefined) [Isoconazole] | 1.15
50 | CC(=O)c1ccc(S(=O)(=O)NC(=O)NC2CCCCC2)cc1 [Acetohexamide] | 1.06
51 | CCCCC[C@H](O)/C=C/[C@@H]1[C@@H](C/C=C\CCCC(=O)O)[C@@H](O)C[C@H]1O [Dinoprost trometamol] | 0.852
52 | COc1ccc(CN(CCN(C)C)c2ccccn2)cc1 [Pyrilamine maleate] | 1.05
53 | CCCNC(C)C(=O)Nc1ccccc1C (centres undefined) [Prilocaine hydrochloride] | 1.14
54 | CC(COc1ccccc1)N(CCCl)Cc1ccccc1 (centres undefined) [Phenoxybenzamine hydrochloride] | 0.974
55 | Cc1cc(=O)oc2cc(O)ccc12 [Hymecromone] | 0.88
56 | CCOC(=O)c1ccc(OC(=O)CCCCCNC(=N)N)cc1 [Gabexate mesilate] | 0.985
57 | c1ccc(C2CN3CCSC3=N2)cc1 (centres undefined) [Tetramisole hydrochloride] | 0.909
58 | C=C1c2cccc(O)c2C(=O)C2=C(O)[C@]3(O)C(=O)C(C(N)=O)=C(O)[C@@H](N(C)C)[C@@H]3[C@@H](O)[C@H]12 [Methacycline hydrochloride] | 0.979
59 | COc1cc2cc3c4cc(OC)c(OC)cc4cc[n+]3c(C)c2cc1OC [Coralyne chloride hydrate] | 0.894
60 | Cn1c(=O)c2nc[nH]c2n(C)c1=O [Theophylline monohydrate] | 1.07
61 | Cc1scc2c1N(C(=O)CN1CCN(C)CC1)c1ccccc1NC2=O [Telenzepine dihydrochloride] | 1.09
62 | CC(C)(C)NC[C@H](O)COc1nsnc1N1CCOCC1 [Timolol maleate salt] | 0.989
63 | NCCCC[C@H](N[C@@H](CCc1ccccc1)C(=O)O)C(=O)N1CCC[C@H]1C(=O)O [Lisinopril] | 1.13
64 | CCOC(=O)OC(C)OC(=O)[C@@H]1N2C(=O)[C@@H](NC(=O)[C@H](N)c3ccccc3)[C@H]2SC1(C)C (some centres undefined) [Bacampicillin hydrochloride] | 1.06

No new results follow: 19 of the compounds above.
Row | SMILES | % Pdx1+ Ins1+
32 | O=C(NCCNCC(O)COc1ccc(O)cc1)N1CCOCC1 (centres undefined) [Xamoterol hemifumarate] | 0.956
33 | CCN(Cc1ccncc1)C(=O)C(CO)c1ccccc1 (centres undefined) [Tropicamide] | 1.09
34 | COc1ccc(C(=O)NCc2cccnc2)cc1C(=O)NCc1cccnc1 [Picotamide monohydrate] | 1.01
35 | NC[C@H]1O[C@H](O[C@H]2[C@H](O[C@@H]3O[C@H](CO)[C@@H](O)[C@H]3O)[C@@H](O)[C@H](N)C[C@@H]2N)[C@H](N)[C@@H](O)[C@@H]1O [Ribostamycin sulfate salt] | 1.02
36 | COc1ccc2[nH]cc(CCNC(C)=O)c2c1 [Melatonin] | 0.885
37 | CC[C@H]1OC(=O)[C@H](C)[C@@H](O[C@H]2C[C@@](C)(OC)[C@@H](O)[C@H](C)O2)[C@H](C)[C@@H](O[C@@H]2O[C@H](C)C[C@H](N(C)C)[C@H]2O)[C@](C)(O)C[C@@H](C)/C(=N\OCOCCOC)[C@H](C)[C@@H](O)[C@]1(C)O [Roxithromycin] | 0.923
38 | COc1c2ccoc2nc2c(OC)c(OCC(O)C(C)(C)O)ccc12 (centres undefined) [Evoxine] | 0.921
39 | Nc1nc(=O)c2nc(CNc3ccc(C(=O)N[C@@H](CCC(=O)O)C(=O)O)cc3)cnc2[nH]1 [Folic acid] | 0.852
40 | CC(=O)N[C@@H](CC(C)C)C(=O)O [N-Acetyl-L-leucine] | 0.972
41 | CC(C)NCC(O)COc1ccc(COCCOC(C)C)cc1 (centres undefined) [Bisoprolol fumarate] | 1.06
42 | Nc1nc(=S)c2ncn([C@@H]3O[C@H](CO)[C@@H](O)[C@H]3O)c2[nH]1 [Thioguanosine] | 0.512
43 | O=c1cc(-c2ccc(O)cc2)oc2cc(O)cc(O)c12 [Apigenin] | 0.877
44 | CO[C@H]1/C=C/O[C@@]2(C)Oc3c(C)c(O)c4c(c3C2=O)C2=NC3(CCN(CC(C)C)CC3)NC2=C(NC(=O)/C(C)=C\C=C\[C@H](C)[C@H](O)[C@@H](C)[C@@H](O)[C@@H](C)[C@H](OC(C)=O)[C@@H]1C)C4=O [Rifabutin] | 0.926
45 | O=C(Cn1ccnc1[N+](=O)[O-])NCCO [Etanidazole] | 0.833
46 | COc1c(O[C@@H]2O[C@H](CO)[C@@H](O)[C@H](O)[C@H]2O)cc2c(c1OC)-c1ccc(SC)c(=O)cc1[C@@H](NC(C)=O)CC2 [Thiocolchicoside] | 0.937
47 | CN(C)CCN(Cc1cccs1)c1ccccn1 [Methapyrilene hydrochloride] | 0.9
48 | NC(=O)N1c2ccccc2C=Cc2ccccc21 [Carbamazepine] | 1.22
49 | Clc1ccc(C(Cn2ccnc2)OCc2c(Cl)cccc2Cl)c(Cl)c1 (centres undefined) [Isoconazole] | 1.15
50 | CC(=O)c1ccc(S(=O)(=O)NC(=O)NC2CCCCC2)cc1 [Acetohexamide] | 1.06
